Assay [1] addresses NCOR2 (SMRT) (human (endogenous in MCF-7)) (UniProt Q9Y618). Briefly: co-IP; anti-NCOR2 immunoprecipitation from MCF-7 with overexpression of BQ, Western blot of the immunoprecipitate.
The target is the same in assay [2]. The experiment in a line: co-IP; anti-NCOR2 immunoprecipitation from MCF-7 lysate (IP buffer: 20 mM Tris-Cl pH 7.4, 150 mM NaCl, 5 mM MgCl2, 0.5% NP-40, 10% glycerol), Protein A/G agarose, Western blot; IgG as negative control.

Sequences of proteins named here, by UniProt entry; tags and fusion partners are left off. A change or cut given only in a name is not applied to a line headed by its entry.
UniProt Q9Y618: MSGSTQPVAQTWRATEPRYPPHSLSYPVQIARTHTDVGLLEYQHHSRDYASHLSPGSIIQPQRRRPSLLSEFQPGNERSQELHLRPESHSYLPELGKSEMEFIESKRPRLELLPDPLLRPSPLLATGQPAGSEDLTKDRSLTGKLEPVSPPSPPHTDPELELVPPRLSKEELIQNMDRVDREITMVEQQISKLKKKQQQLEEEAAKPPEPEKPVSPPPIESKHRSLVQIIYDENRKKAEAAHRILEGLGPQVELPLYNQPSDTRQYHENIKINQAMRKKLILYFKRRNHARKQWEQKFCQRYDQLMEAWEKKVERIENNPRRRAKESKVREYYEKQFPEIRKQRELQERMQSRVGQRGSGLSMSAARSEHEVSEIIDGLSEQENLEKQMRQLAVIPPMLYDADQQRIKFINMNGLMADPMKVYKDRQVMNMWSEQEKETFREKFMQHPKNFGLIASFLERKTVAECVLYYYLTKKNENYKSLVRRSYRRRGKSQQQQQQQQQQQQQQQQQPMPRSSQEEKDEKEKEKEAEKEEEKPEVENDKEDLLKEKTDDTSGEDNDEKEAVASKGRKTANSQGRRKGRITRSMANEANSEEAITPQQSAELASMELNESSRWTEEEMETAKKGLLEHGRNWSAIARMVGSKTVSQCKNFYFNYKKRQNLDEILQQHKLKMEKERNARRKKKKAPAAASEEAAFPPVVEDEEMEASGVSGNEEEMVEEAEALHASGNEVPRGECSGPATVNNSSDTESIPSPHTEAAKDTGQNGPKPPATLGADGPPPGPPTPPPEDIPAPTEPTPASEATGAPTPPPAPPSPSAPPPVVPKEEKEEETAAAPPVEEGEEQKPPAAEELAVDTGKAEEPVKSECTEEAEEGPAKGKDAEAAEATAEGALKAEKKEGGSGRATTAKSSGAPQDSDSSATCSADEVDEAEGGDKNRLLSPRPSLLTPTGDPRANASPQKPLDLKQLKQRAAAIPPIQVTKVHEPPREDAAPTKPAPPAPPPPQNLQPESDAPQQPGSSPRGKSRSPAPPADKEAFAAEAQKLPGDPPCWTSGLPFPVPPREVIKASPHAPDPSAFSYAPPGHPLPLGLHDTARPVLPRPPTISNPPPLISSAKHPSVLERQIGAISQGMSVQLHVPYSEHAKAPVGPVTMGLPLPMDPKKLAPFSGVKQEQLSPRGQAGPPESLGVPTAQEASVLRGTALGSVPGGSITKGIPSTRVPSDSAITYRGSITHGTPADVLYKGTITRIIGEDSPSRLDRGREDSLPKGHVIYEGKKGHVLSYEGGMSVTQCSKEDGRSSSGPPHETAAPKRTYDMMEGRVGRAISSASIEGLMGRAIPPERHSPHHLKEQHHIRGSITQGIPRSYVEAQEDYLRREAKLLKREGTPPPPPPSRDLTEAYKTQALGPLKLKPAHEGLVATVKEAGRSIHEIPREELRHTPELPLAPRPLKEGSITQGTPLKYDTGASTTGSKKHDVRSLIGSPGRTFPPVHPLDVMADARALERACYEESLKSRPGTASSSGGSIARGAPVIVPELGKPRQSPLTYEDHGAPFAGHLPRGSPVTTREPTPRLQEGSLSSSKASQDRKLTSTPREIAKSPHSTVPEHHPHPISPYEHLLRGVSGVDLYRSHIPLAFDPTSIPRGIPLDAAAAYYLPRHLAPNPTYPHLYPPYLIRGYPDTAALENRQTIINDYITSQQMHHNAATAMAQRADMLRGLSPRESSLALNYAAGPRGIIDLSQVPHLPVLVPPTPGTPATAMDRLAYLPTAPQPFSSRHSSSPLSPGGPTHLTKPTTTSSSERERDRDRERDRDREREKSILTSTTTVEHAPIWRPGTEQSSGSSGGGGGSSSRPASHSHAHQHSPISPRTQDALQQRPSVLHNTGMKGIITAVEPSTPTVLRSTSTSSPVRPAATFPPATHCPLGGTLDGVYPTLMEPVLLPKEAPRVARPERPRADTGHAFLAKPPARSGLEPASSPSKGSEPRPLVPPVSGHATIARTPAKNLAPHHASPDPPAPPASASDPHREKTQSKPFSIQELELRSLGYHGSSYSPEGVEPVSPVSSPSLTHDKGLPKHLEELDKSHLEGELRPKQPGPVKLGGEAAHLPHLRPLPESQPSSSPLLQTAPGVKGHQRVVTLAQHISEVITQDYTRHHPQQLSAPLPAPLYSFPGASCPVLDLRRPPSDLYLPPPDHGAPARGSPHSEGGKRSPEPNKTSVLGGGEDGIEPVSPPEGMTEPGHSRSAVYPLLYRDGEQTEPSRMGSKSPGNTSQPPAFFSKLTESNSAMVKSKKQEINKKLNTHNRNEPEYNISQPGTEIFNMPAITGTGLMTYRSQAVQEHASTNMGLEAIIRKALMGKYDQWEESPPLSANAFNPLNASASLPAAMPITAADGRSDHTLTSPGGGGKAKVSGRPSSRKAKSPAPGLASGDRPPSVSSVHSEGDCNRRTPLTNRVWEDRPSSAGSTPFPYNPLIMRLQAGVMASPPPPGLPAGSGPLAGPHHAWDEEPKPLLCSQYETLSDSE
UniProt P19838: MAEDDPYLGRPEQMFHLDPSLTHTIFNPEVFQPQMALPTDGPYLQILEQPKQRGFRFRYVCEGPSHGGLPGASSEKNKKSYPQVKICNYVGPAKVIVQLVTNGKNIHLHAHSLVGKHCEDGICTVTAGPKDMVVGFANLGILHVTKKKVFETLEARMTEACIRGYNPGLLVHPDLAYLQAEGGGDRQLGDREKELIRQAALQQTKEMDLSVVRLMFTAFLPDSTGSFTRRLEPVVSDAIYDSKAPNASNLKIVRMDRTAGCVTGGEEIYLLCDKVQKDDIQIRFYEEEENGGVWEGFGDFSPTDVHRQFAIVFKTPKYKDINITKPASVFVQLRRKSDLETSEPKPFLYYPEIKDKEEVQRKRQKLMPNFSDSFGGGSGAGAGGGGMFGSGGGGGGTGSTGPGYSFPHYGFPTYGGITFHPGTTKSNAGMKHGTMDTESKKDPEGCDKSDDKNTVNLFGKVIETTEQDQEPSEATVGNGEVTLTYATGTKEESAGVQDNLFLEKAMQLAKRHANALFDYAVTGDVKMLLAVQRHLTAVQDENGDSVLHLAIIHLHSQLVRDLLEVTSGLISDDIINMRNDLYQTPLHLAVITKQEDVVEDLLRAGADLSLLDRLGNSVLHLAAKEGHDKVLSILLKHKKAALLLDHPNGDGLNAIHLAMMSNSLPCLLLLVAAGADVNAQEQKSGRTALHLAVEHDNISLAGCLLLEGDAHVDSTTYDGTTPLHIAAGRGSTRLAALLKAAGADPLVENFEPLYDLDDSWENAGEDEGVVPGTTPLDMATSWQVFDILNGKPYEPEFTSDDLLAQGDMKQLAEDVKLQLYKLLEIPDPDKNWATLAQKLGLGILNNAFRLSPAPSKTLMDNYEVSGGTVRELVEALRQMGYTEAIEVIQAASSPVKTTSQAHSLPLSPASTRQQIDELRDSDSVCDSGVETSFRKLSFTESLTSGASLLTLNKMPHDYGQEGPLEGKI

No constants are given. Whether binding was seen depends on the method and setting. Binding seen in cells or lysates may run through a third protein. Some binding calls cover weakened binding; strength is not graded here.

In the case of “NF-κB p50–p65 heterodimer (from UniProt P19838 1-433; Q04206 1-551) (complex)”, the binding result in assay [1] and in assay [2] was “binds” throughout.

Values taken from article PMC8036560.
